The other results are listed elsewhere or left out. Residues, ends and D or L forms follow the SMILES beside them. *: point of attachment. Cbz = O=C(OCc1ccccc1)*

By UniProt entry, the sequences of proteins in these tests, tags left out. Where a name states a change or a piece, a line headed by the entry shows the natural chain unless it says otherwise.
UniProt Q9UQ53: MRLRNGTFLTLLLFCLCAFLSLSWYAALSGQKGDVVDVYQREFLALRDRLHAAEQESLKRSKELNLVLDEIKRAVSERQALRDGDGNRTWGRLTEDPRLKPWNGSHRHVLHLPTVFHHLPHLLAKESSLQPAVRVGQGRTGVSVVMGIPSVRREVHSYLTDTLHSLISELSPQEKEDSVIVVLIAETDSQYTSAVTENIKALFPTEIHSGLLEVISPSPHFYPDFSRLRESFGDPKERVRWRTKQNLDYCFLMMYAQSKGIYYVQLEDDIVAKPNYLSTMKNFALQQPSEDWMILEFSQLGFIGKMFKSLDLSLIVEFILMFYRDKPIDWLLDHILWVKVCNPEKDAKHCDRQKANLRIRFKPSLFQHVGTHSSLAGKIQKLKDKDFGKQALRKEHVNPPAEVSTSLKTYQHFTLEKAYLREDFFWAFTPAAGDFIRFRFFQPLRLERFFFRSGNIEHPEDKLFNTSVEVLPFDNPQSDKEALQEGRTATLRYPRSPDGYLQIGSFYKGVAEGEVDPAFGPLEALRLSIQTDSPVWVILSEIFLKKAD
UniProt Q14814: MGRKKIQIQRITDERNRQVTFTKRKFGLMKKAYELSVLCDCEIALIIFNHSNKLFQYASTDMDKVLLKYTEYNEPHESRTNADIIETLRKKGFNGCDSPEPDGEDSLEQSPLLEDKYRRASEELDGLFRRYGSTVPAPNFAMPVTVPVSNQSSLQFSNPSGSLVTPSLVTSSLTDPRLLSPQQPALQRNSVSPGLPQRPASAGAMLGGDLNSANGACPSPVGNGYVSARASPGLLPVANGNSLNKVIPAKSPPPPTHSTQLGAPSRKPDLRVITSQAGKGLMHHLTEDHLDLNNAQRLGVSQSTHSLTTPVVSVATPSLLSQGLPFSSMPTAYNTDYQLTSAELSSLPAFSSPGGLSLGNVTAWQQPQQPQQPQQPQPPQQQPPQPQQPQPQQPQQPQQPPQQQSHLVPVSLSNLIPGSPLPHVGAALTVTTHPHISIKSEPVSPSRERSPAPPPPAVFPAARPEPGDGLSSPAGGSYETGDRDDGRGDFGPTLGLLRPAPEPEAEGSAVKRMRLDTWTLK
UniProt P25205: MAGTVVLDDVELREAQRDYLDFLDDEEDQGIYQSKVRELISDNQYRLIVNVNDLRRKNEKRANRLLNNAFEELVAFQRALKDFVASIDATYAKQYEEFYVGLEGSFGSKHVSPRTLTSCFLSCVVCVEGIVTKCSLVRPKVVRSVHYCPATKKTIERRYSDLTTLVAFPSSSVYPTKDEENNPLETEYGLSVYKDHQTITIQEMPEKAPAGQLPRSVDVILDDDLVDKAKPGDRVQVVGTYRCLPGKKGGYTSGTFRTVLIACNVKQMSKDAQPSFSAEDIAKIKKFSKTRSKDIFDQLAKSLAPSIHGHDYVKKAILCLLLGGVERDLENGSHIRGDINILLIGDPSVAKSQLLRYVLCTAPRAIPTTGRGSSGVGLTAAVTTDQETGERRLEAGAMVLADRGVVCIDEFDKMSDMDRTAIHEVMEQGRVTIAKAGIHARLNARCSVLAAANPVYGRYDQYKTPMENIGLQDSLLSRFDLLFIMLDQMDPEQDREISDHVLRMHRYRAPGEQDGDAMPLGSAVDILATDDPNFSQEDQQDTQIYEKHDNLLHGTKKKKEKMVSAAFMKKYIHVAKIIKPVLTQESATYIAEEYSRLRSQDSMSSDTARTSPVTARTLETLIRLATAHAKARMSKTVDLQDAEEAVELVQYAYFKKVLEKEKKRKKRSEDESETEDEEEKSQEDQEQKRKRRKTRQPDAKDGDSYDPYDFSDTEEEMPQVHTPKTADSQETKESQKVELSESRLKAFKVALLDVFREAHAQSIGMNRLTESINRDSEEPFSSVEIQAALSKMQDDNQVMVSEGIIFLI
UniProt P26572: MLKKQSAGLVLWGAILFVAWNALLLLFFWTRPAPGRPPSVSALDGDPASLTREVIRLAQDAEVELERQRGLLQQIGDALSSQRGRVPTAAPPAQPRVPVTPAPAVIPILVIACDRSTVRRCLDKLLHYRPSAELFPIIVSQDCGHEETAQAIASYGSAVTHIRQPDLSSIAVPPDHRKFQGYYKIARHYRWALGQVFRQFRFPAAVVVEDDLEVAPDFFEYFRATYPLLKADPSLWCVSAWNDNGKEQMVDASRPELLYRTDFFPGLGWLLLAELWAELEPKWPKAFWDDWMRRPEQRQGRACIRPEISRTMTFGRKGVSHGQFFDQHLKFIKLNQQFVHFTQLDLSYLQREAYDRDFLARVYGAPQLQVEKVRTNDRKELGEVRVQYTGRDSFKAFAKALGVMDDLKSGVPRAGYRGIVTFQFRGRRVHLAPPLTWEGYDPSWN
UniProt Q6UB28: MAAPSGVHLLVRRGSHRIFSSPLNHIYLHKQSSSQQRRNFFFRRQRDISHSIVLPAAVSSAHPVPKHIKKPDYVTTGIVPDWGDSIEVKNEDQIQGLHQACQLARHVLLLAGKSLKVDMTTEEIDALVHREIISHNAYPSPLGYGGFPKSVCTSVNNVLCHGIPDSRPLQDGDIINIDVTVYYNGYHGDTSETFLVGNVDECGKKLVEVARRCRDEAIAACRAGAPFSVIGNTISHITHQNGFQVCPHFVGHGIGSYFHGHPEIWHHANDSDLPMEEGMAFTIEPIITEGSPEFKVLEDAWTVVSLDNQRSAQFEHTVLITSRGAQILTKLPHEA
UniProt O15021: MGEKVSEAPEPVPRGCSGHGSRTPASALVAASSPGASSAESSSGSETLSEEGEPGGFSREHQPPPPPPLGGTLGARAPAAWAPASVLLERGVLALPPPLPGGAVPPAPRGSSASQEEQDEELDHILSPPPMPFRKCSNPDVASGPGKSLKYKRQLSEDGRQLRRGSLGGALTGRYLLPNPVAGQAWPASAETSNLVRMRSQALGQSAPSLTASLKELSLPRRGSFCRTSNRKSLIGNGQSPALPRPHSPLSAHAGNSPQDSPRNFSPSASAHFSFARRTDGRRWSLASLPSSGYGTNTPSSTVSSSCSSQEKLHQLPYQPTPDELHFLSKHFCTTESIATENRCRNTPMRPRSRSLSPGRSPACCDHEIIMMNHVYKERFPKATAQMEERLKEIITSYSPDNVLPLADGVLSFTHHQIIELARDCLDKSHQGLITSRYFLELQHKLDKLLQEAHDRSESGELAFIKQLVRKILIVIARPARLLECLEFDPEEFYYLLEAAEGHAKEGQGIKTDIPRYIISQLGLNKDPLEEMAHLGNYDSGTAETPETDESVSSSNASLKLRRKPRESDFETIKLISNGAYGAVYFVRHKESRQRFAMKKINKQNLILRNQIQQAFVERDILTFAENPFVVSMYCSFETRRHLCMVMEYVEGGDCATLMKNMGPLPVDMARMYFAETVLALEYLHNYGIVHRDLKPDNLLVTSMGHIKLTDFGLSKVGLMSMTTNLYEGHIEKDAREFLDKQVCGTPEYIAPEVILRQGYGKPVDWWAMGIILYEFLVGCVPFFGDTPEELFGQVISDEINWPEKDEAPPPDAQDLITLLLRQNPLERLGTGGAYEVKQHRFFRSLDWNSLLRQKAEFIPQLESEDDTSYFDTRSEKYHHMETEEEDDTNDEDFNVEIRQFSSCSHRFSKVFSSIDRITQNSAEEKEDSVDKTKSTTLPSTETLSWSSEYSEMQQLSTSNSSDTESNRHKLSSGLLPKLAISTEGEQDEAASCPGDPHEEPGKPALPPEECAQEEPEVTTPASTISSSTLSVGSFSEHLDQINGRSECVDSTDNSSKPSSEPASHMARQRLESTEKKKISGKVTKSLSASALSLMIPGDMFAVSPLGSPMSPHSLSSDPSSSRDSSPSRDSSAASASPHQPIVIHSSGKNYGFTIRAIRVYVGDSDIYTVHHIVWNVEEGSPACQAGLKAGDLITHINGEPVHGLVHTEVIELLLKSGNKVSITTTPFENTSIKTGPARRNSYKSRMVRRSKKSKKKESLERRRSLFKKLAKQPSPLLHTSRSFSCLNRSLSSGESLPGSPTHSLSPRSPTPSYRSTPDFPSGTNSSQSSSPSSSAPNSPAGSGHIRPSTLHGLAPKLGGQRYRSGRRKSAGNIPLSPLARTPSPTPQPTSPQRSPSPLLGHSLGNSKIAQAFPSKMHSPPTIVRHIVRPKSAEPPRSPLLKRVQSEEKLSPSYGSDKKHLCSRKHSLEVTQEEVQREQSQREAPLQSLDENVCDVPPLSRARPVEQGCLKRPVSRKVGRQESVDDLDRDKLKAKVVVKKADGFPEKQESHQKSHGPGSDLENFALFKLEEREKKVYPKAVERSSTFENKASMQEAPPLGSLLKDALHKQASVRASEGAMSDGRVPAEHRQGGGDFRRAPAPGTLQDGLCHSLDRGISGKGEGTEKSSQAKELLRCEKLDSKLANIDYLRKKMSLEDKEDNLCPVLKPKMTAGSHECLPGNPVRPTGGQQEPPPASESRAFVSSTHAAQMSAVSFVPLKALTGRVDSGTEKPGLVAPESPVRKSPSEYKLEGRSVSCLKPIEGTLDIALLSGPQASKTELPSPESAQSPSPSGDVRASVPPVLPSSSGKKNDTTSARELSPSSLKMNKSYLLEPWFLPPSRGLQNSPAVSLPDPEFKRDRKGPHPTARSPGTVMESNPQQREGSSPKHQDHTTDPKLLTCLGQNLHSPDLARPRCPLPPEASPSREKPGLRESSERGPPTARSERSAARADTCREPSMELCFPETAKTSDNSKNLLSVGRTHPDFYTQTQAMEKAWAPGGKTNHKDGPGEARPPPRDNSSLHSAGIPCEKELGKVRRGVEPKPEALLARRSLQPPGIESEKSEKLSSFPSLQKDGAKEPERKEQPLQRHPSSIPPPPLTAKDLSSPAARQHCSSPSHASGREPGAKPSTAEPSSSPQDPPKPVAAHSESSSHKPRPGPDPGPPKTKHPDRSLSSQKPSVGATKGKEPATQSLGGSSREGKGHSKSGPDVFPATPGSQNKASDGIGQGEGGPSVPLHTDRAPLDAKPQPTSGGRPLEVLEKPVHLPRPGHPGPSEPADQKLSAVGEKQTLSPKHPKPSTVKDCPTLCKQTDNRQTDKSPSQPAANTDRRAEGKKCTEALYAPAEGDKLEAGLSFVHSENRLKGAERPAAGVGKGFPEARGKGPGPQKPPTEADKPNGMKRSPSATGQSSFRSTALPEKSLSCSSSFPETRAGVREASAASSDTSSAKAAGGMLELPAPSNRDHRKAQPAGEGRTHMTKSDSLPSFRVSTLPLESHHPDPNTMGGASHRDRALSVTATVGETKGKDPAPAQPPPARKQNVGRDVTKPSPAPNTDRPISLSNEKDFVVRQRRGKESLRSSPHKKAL
UniProt Q08431: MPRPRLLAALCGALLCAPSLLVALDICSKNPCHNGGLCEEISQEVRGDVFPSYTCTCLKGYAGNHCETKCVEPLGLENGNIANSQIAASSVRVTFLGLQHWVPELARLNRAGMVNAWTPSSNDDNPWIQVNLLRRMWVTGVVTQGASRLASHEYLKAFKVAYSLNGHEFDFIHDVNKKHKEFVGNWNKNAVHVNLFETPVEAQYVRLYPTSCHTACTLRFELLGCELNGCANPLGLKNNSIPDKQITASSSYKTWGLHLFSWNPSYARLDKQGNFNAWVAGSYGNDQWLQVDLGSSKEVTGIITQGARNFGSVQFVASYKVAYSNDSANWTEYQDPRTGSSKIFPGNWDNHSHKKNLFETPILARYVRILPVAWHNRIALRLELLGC
UniProt Q14566: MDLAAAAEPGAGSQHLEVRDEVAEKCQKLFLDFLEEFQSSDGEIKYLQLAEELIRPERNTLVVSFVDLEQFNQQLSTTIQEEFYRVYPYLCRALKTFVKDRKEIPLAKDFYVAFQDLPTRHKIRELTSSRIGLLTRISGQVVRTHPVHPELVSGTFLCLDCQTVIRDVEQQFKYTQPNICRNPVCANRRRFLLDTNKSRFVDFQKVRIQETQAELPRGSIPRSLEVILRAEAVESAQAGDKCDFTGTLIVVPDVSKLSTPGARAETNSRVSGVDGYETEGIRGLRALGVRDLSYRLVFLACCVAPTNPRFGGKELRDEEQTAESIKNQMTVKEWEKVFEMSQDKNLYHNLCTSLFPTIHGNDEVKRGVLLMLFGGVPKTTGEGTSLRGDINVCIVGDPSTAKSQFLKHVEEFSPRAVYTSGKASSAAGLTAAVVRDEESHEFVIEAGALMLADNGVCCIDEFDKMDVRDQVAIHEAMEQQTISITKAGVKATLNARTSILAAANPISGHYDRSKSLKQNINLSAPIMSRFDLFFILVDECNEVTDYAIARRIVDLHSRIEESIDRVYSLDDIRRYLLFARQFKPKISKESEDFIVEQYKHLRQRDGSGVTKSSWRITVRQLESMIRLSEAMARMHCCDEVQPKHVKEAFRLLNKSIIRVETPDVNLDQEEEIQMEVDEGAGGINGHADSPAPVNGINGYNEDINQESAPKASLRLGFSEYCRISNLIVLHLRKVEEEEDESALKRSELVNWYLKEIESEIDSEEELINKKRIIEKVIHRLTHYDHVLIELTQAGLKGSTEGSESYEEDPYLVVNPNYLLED

Compound in the first experiment: CC(C)C[C@@H](C=O)NC(=O)[C@H](CC(C)C)NC(=O)[C@H](CC(C)C)NC(=O)OCc1ccccc1
Description: log2 fold change, soluble protein after heating vs DMSO (PISA); higher = thermal stabilisation; K562 cells, 10 uM, 30 min; active = over 0.2 and 3.5 SD of the protein, either way, in both replicates (recomputed). In short, it runs like this: (§1)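 Aliquots of K562 cells (2×10^6 cells/mL) treated with 10 μM compound for 30 min were heated for 3 min over 48°C-58°C. After pooling and extraction in PBS with 0.5% NP-40 at 4°C, soluble protein from a 21,000xg, 90 min spin was quantified by TMTpro 16plex LC-MS/MS with channel sums equalised. Thermal stability is expressed against control samples, from duplicates, as a log2 fold change.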
Consider MGAT4B isoform 3 (UniProt Q9UQ53), for which the log2 fold change was inactive: 0.067.

Take MBNL1 (UniProt Q9NR56): the log2 fold change is inactive: -0.002.

Consider MEF2D (UniProt Q14814), for which the log2 fold change was inactive: 0.028.

MFSD10 (UniProt Q14728): the log2 fold change was inactive: -0.011.

In the case of MCAM (UniProt P43121), the log2 fold change was inactive: 0.016.

Consider METTL1 (UniProt Q9UBP6), for which the log2 fold change is inactive: -0.123.

For the target MECP2 isoform 2 (UniProt P51608), the log2 fold change was inactive: 0.041.

For the target MCM2 (UniProt P49736), the log2 fold change is inactive: -0.013.

Regarding MCM3 isoform 2 (UniProt P25205), the log2 fold change is inactive: -0.015.

With METTL21A (UniProt Q8WXB1), the log2 fold change was inactive: -0.076.

In the case of MDN1 (UniProt Q9NU22), the log2 fold change was inactive: -0.029.

On to MGAT1 (UniProt P26572), for which the log2 fold change was inactive: -0.009.

For the target METAP1D (UniProt Q6UB28), the log2 fold change is inactive: 0.044.

As to MED20 (UniProt Q9H944), the log2 fold change was inactive: -0.014.

As for METTL14 (UniProt Q9HCE5), the log2 fold change was inactive: -0.02.

With MEAK7 (UniProt Q6P9B6), the log2 fold change is inactive: 0.079.

On to MCRIP1 (UniProt I3L4Q0), for which the log2 fold change was inactive: 0.063.

Take MCM5 (UniProt P33992): the log2 fold change is inactive: -0.04.

With MCUB (UniProt Q9NWR8), the log2 fold change was inactive: -0.017.

In the case of MED22 (UniProt Q15528), the log2 fold change was inactive: 0.076.

On to ME2 (UniProt P23368), for which the log2 fold change is inactive: 0.025.

For the target MBOAT1 (UniProt Q6ZNC8), the log2 fold change is inactive: 0.089.

MDC1 (UniProt Q14676): the log2 fold change is inactive: 0.176.

On to MCMBP (UniProt Q9BTE3), for which the log2 fold change is inactive: 0.051.

On to MATR3 (UniProt P43243), for which the log2 fold change was inactive: 0.228.

On to MFN1 (UniProt Q8IWA4), for which the log2 fold change was inactive: 0.078.

For MAST4 (UniProt O15021), the log2 fold change is inactive: 0.002.

With MED18 (UniProt Q9BUE0), the log2 fold change is inactive: 0.023.

In the case of MAT2A (UniProt P31153), the log2 fold change was inactive: 0.009.

MAVS (UniProt Q7Z434): the log2 fold change is inactive: -0.057.

Take MEMO1 (UniProt Q9Y316): the log2 fold change was inactive: -0.02.

In the case of MGST3 (UniProt O14880), the log2 fold change was inactive: 0.006.

In the case of MED15 (UniProt Q96RN5), the log2 fold change was inactive: 0.12.

For the target MCFD2 (UniProt Q8NI22), the log2 fold change was inactive: -0.154.

Take MARS2 (UniProt Q96GW9): the log2 fold change was inactive: -0.04.

As to MED14 (UniProt O60244), the log2 fold change is inactive: 0.066.

Take MFGE8 (UniProt Q08431): the log2 fold change is inactive: 0.191.

Turning to MCTS1 isoform 3 (UniProt Q9ULC4), the log2 fold change was inactive: -0.021.

With MCM6 (UniProt Q14566), the log2 fold change is inactive: -0.048.

Compound in the next experiment: CC(C)N(C[C@H]1O[C@@H](n2cnc3c(N)ncnc32)[C@H](O)[C@@H]1O)[C@H]1C[C@@H](CCc2nc3cc(C(C)(C)C)ccc3[nH]2)C1 [pinometostat]
Described as above. A digest of the protocol:
as §1
Take MGAT4B isoform 3 (UniProt Q9UQ53): the log2 fold change was inactive: -0.013.

With MBNL1 (UniProt Q9NR56), the log2 fold change is inactive: -0.013.

With MEF2D (UniProt Q14814), the log2 fold change is inactive: -0.007.

As for MFSD10 (UniProt Q14728), the log2 fold change was inactive: 0.049.

As to MCAM (UniProt P43121), the log2 fold change is inactive: -0.068.

With METTL1 (UniProt Q9UBP6), the log2 fold change is inactive: -0.062.

With MECP2 isoform 2 (UniProt P51608), the log2 fold change is inactive: 0.286.

For MCM2 (UniProt P49736), the log2 fold change was inactive: -0.028.

As for MCM3 isoform 2 (UniProt P25205), the log2 fold change is inactive: -0.02.

Regarding METTL21A (UniProt Q8WXB1), the log2 fold change is inactive: -0.119.

As for MDN1 (UniProt Q9NU22), the log2 fold change was inactive: -0.009.

As to MGAT1 (UniProt P26572), the log2 fold change is inactive: -0.006.

As to METAP1D (UniProt Q6UB28), the log2 fold change is inactive: -0.003.

Take MED20 (UniProt Q9H944): the log2 fold change was inactive: -0.009.

For the target METTL14 (UniProt Q9HCE5), the log2 fold change was inactive: 0.012.

For the target MEAK7 (UniProt Q6P9B6), the log2 fold change was inactive: 0.037.

Turning to MCRIP1 (UniProt I3L4Q0), the log2 fold change is inactive: -0.026.

Regarding MCM5 (UniProt P33992), the log2 fold change is inactive: -0.022.

In the case of MCUB (UniProt Q9NWR8), the log2 fold change is inactive: -0.108.

Consider MED22 (UniProt Q15528), for which the log2 fold change was inactive: 0.012.

In the case of ME2 (UniProt P23368), the log2 fold change is inactive: -0.021.

For MBOAT1 (UniProt Q6ZNC8), the log2 fold change is inactive: -0.002.

In the case of MDC1 (UniProt Q14676), the log2 fold change is inactive: 0.133.

As for MCMBP (UniProt Q9BTE3), the log2 fold change is inactive: -0.036.

On to MATR3 (UniProt P43243), for which the log2 fold change was inactive: 0.044.

Regarding MFN1 (UniProt Q8IWA4), the log2 fold change is inactive: 0.018.

With MAST4 (UniProt O15021), the log2 fold change is inactive: -0.057.

MED18 (UniProt Q9BUE0): the log2 fold change is inactive: 0.01.

On to MAT2A (UniProt P31153), for which the log2 fold change was inactive: -0.003.

For MAVS (UniProt Q7Z434), the log2 fold change was inactive: -0.093.

With MEMO1 (UniProt Q9Y316), the log2 fold change was inactive: 0.01.

For MGST3 (UniProt O14880), the log2 fold change was inactive: -0.025.

On to MED15 (UniProt Q96RN5), for which the log2 fold change is inactive: 0.017.

On to MCFD2 (UniProt Q8NI22), for which the log2 fold change is inactive: -0.033.

Regarding MARS2 (UniProt Q96GW9), the log2 fold change is inactive: 0.02.

For MED14 (UniProt O60244), the log2 fold change is inactive: 0.119.

Regarding MFGE8 (UniProt Q08431), the log2 fold change is inactive: 0.12.

For the target MCTS1 isoform 3 (UniProt Q9ULC4), the log2 fold change was inactive: -0.037.

With MCM6 (UniProt Q14566), the log2 fold change was inactive: -0.026.

The values are drawn from the supplement of paper PMC10849652.
